From patent publication EP4656654A1 (Qianhangjiang Pharmaceutical Co., Ltd., priority 2023, dated 2025)
Some peptides are written in HELM: one residue between dots, names in brackets for other building blocks, links after the first $.

Assay: general procedure: Fmoc solid-phase peptide synthesis; 2-chloro-trityl resin; HBTU/HOBt/DIPEA
Settings: whole synthesis, 214 nm

| Substance | final HPLC purity [%] |
| --- | --- |
| PEPTIDE1{[dF].C.F.[dW].[Lys(a)].T.C.[Thr-ol]}$PEPTIDE1,PEPTIDE1,2:R3-7:R3$$$V2.0 | >99 |
| PEPTIDE1{[dF].C.F.[dW].[Lys(b)].T.C.[Thr-ol]}$PEPTIDE1,PEPTIDE1,2:R3-7:R3$$$V2.0 | >99 |
| PEPTIDE1{[dF].C.F.[dW].[Lys(d)].T.C.[Thr-ol]}$PEPTIDE1,PEPTIDE1,2:R3-7:R3$$$V2.0 | >99 |
